We go through one substance from article PMC6026624.

Protein sequences, listed by entry. Tags and fused reporters are not part of them.
UniProt Q7Z434: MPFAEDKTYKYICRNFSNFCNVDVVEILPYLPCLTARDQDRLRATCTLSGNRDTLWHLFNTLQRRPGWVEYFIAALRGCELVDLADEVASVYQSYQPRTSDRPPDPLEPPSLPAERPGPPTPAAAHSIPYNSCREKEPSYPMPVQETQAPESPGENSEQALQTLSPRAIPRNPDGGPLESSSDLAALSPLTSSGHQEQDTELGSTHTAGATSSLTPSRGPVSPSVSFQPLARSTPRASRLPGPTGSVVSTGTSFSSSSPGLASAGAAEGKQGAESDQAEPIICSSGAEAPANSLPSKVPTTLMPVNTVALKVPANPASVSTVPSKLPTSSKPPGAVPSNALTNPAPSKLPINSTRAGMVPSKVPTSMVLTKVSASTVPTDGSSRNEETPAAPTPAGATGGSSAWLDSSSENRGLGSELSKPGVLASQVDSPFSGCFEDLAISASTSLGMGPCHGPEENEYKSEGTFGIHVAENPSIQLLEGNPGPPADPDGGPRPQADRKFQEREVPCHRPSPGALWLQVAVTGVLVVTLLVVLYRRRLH

These are yes or no findings as the source states them, for the method shown. Binding seen in cells or lysates may run through a third protein. Some results given as binding are weak or reduced against the parent protein; the word gives no strength. Tags and fused reporters may be left off the sequences shown.

The target of this test is T1, FLAG tagged MDA5 (melanoma differentiation-associated protein 5) (human) (UniProt Q9BYX4).
T1 sequence: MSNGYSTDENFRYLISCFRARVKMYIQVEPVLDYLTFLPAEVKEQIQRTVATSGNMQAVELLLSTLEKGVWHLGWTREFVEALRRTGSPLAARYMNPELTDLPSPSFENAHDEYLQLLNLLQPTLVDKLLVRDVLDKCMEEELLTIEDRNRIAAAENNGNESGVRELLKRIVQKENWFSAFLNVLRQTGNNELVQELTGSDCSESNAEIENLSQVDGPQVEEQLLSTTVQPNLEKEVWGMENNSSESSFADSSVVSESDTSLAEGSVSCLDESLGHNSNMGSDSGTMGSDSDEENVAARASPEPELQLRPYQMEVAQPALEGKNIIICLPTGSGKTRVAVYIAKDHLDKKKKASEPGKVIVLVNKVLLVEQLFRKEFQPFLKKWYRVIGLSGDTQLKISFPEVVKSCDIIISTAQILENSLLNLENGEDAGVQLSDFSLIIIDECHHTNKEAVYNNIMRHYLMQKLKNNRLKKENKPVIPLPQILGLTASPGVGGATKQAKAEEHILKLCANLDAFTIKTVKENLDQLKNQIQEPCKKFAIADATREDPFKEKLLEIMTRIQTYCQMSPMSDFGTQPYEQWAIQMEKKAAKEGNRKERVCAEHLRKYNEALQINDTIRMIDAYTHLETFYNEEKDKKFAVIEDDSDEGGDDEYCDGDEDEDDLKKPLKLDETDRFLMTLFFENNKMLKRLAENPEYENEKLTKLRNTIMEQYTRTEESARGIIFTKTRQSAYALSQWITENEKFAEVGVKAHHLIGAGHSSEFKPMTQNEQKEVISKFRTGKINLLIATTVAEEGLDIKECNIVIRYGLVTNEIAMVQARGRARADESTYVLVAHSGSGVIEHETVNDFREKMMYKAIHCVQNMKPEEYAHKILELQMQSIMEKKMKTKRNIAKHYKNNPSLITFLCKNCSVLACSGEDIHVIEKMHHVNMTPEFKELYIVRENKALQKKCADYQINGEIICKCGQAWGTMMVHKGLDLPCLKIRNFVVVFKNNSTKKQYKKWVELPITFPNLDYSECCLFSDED
Kind of test: co-IP; HEK293T cells transfected with FLAG-MDA5 or FLAG-ΔRIG-I and Myc vector or increasing amounts of Myc-NS4A (plasmid molar ratio to FLAG-MDA5 1:3; to FLAG-ΔRIG-I 1:6, 1:3, 1:2); anti-FLAG precipitation, endogenous MAVS detected by immunoblot. Background: Immunoblotting shows a protein as a band on a membrane.

As to “endogenous MAVS (from UniProt Q7Z434 1-540)”, the binding result is listed as “binds”.
